Article PMC3661532
These are yes or no findings as the source states them, for the method shown. Binding seen in cells or lysates may run through a third protein. Some results given as binding are weak or reduced against the parent protein; the word gives no strength.

T1: Kindlin 2 (Fermitin family homolog 2) (mouse (endogenous in C2C12)) (UniProt Q8CIB5)
T1 sequence: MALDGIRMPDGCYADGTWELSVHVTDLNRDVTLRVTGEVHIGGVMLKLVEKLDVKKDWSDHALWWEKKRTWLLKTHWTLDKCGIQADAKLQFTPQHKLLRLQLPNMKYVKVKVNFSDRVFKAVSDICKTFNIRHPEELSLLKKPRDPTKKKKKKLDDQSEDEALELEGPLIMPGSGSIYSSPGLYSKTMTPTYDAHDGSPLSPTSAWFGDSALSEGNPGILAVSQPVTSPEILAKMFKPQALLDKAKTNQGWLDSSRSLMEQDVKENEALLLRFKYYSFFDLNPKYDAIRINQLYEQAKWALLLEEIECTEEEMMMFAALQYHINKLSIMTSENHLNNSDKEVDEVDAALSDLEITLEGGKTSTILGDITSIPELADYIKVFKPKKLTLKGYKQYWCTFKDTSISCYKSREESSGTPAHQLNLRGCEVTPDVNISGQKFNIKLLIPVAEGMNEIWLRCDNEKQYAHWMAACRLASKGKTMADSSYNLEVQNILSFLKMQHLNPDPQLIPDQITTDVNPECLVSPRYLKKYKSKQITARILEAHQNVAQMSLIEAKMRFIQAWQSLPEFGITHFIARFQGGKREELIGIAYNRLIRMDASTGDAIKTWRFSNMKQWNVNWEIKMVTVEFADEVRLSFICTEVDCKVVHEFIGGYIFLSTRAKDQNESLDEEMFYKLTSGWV

T2: TCF4 (mouse (endogenous in C2C12)), Q924A0
T2 chain: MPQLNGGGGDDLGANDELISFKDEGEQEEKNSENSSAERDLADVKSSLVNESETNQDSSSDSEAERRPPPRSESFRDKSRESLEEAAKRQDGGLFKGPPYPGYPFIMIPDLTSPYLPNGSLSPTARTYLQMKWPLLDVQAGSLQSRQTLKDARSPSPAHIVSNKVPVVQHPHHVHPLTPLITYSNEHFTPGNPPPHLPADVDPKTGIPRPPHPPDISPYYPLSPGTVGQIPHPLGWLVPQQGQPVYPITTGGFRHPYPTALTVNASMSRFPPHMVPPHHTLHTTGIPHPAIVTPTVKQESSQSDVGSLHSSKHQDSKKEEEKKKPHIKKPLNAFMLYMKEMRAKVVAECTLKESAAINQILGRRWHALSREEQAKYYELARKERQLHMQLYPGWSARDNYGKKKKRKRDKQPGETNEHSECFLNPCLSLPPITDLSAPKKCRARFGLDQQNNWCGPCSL


Experiments:
[1] = target: T1, Kindlin 2 (Fermitin family homolog 2) (mouse (endogenous in C2C12)); assay: co-IP; nuclear lysates of differentiated C2C12 cells (DM day 3); immunoprecipitation with anti-TCF4, anti-Kindlin 2 or anti-active β-catenin; Western blot
[2] = target: T1, Kindlin 2 (Fermitin family homolog 2) (mouse (endogenous in C2C12)); assay: co-IP; total cell lysates of differentiated C2C12 cells (DM day 3); antibody 4 h at 4°C, protein A/G-Sepharose overnight, three washes with NP40 buffer; Western blot
[3] = target: T2, TCF4 (mouse (endogenous in C2C12)), …; assay: co-IP; nuclear lysates of differentiated C2C12 cells (DM day 3); immunoprecipitation with anti-TCF4, anti-Kindlin 2 or anti-active β-catenin; Western blot; conditions: remark: other sources report otherwise

binding [1]	binding [2]	binding [3]	Molecule
binds			TCF4 (from UniProt Q924A0 1-459)
binds	binds		active β-catenin (from UniProt Q02248 1-781)
	binds		β-catenin (from UniProt Q02248 1-781)
		binds	active β-catenin, Q02248 1-781 (protein) MATQADLMELDMAMEPDRKAAVSHWQQQSYLDSGIHSGATTTAPSLSGKGNPEEEDVDTSQVLYEWEQGFSQSFTQEQVADIDGQYAMTRAQRVRAAMFPETLDEGMQIPSTQFDAAHPTNVQRLAEPSQMLKHAVVNLINYQDDAELATRAIPELTKLLNDEDQVVVNKAAVMVHQLSKKEASRHAIMRSPQMVSAIVRTMQNTNDVETARCTAGTLHNLSHHREGLLAIFKSGGIPALVKMLGSPVDSVLFYAITTLHNLLLHQEGAKMAVRLAGGLQKMVALLNKTNVKFLAITTDCLQILAYGNQESKLIILASGGPQALVNIMRTYTYEKLLWTTSRVLKVLSVCSSNKPAIVEAGGMQALGLHLTDPSQRLVQNCLWTLRNLSDAATKQEGMEGLLGTLVQLLGSDDINVVTCAAGILSNLTCNNYKNKMMVCQVGGIEALVRTVLRAGDREDITEPAICALRHLTSRHQEAEMAQNAVRLHYGLPVVVKLLHPPSHWPLIKATVGLIRNLALCPANHAPLREQGAIPRLVQLLVRAHQDTQRRTSMGGTQQQFVEGVRMEEIVEGCTGALHILARDVHNRIVIRGLNTIPLFVQLLYSPIENIQRVAAGVLCELAQDKEAAEAIEAEGATAPLTELLHSRNEGVATYAAAVLFRMSEDKPQDYKKRLSVELTSSLFRTEPMAWNETADLGLDIGAQGEALGYRQDDPSYRSFHSGGYGQDALGMDPMMEHEMGGHHPGADYPVDGLPDLGHAQDLMDGLPPGDSNQLAWFDTDL
